Results as given in PubChem BioAssay (NCATS).
The source calls these results inconclusive, neither active nor inactive. Calls come from the whole dose curve; as a rule, active = well fitted curve in the direction sought with a large enough effect; inconclusive = small, poorly fitted or top-dose-only effect, or another doubt; inactive = no such curve, though single readings can be large; an effect the other way counts as inactive or inconclusive. Some salts or complexes appear as unconnected parts, following the source record.

How the values were obtained:
[1] = target: Retinaldehyde dehydrogenase 3 (Homo sapiens) (UniProt P47895); test: qHTS for Inhibitors of the Aldehyde Dehydrogenase Family (ALDH1A3) Validation screen (AID 2061312); details: ALDH1A3 enzyme inhibition qHTS validation, fluorescence; note: nearly all actives have a fitted effect of over 45% in size
[2] = BET inhibitor-based combinations targeting novel dependencies in MECOM-rearranged (r) AML: HNT-34 cell line (AID 2202234); details: HNT-34 AML viability, CellTiter-Glo luminescence, 48 h; note: nearly all actives have a fitted effect of over 35% in size
From the text: (§1) Ecotropic viral insertion site 1 (EVI1) is located on chromosome 3q26.2 as part of the MECOM (MDS and EVI1 complex) locus. Under normal hematopoiesis, EVI1 is a regulator of hematopoietic stem cell maintenance and self-renewal and EVI1 levels decrease as the cells differentiate. In approximately 5-10% of de novo acute myeloid leukemia (AML) EVI1 is aberrantly expressed, including Chromosomal inv(3)(q21;q26.2) or t(3;3)(q21;q26.2) alterations (MECOM-r) that account for about 50% of AML with EVI1 overexpression 31. AMLs with high levels of EVI1 have a poor prognosis and an overall survival time averaging between 10-14 months. EVI1 overexpression confers resistance in leukemia cells, highlighting the need to develop new targeted therapies for EVI1 overexpressing AMLs. […]
(§2) A collection of 2480 mechanistically annotated dugs (MIPE v5.0) was used to screen four 3q26.2 rearranged AML cell lines and three non-3q26.2 rearranged AML cell lines. […] Cell viability was determined by luminescence based, Cell Titer Glo assay (Promega). […] Luminescence readings were taken using a Viewlux (PerkinElmer) with a 2 s exposure time per plate. […] Quantitative drug activity data from dose-response curves was determined utilizing area Under the Curve (AUC) and Z-transformed AUC (Z-AUC, a mean-centering transformation applied to each individual cell-line screened).

[3] = BET inhibitor-based combinations targeting novel dependencies in MECOM-rearranged (r) AML: UCSD-AML1 cell line (AID 2202235); details: UCSD-AML1 AML cells viability, CellTiter-Glo, 48 h; note: nearly all actives have a fitted effect of over 40% in size
In short: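 Seeding density was 500 cells/well, and drug exposure lasted 48 hr under standard culture conditions. Read-out used CellTiter-Glo reagent with a 15 min room-temperature incubation before luminescence measurement; AUC and Z-AUC summarize the normalized responses.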

[4] = BET inhibitor-based combinations targeting novel dependencies in MECOM-rearranged (r) AML: AML-194 cell line (AID 2202237; note: nearly all actives have a fitted effect of over 40% in size); details: AML-194 (MECOM-r AML) viability, CellTiter-Glo, 48 h
From the text: as §1, §2
Potency is the fitted concentration of half-maximal effect.

SMILES	Potency [1]	Potency [2]	Potency [3]	Potency [4]
C/C1=C2N=C(/C=C3N=C(/C(C)=C4\N=C(C(CC(N)=O)C4(C)CCC(=O)NCC(C)OP(=O)([O-])OC4C(CO)OC(n5cnc6cc(C)c(C)cc65)C4O)C4(C)N=C1C(CCC(N)=O)C4(C)CC(N)=O)C(CCC(N)=O)C\3(C)C)C(CCC(N)=O)C/2(C)CC(N)=O.[C-]#N.[Co] (centres undefined)	inconclusive: 14.1 µM	–	–	–
C/C1=C2/N=C(C(CC(N)=O)C2(C)CCC(=O)NCC(C)OP(=O)([O-])OC2C(CO)OC(n3cnc4cc(C)c(C)cc43)C2O)C2(C)N=C(/C(C)=C3N=C(/C=C4N=C1C(CCC(N)=O)C\4(C)C)C(CCC(N)=O)C/3(C)CC(N)=O)C(CCC(N)=O)C2(C)CC(N)=O.[C-]#N.[Co] (centres undefined)	–	inconclusive: 10.5 µM	inconclusive: 23.5 µM	inconclusive: 18.6 µM
